The list shows a part of the results.
Target: OsWRKY34 (Oryza sativa, UniProt Q0JBA9 1-250)
Assay: protein-binding microarray (RPBM); PBS, 2% BSA, 51.3 ng/ul salmon testes DNA, 50 uM zinc acetate, 200 nM TF, 25 C, 1 h; high values mean tight binding
Details: protein: recombinant; tags: N-terminal polyhistidine and DsRed monomer fusion (pET32a); label: CyDye5-dUTP incorporated in the synthesized complementary strand; 3' TTTTT single-stranded linker to array surface; dsDNA, one strand shown
Procedure, shortened: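 Ni–NTA purification followed expression in E. coli BL21-CodonPlus of transcription factors fused N-terminally to a polyhistidine tag and DsRed. At 200 nM in PBS with 2% BSA, salmon testes DNA and 50 µM zinc acetate, the protein was incubated for 1 h at 25 °C with a custom Agilent array that had been primer-extended with Cy5-dUTP and blocked with 2% BSA. After washing, the array was read on an Axon 4000B scanner. The binding signal is per-feature fluorescence intensity in arbitrary units.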

Amino acid sequences for entries named in this document (tags omitted).
UniProt Q0JBA9, entry or part of it: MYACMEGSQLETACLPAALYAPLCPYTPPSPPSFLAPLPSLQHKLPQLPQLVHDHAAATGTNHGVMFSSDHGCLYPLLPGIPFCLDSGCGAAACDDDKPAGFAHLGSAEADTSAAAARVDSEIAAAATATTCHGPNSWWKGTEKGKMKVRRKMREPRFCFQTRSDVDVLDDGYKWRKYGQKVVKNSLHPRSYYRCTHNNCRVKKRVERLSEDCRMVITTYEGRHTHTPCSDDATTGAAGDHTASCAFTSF

Point of comparison: “GGTTGTCGACAAGGTACTCGTTGGTTGTCCAGAATATTTTCGGAGTCACCTAGTGCAG”, binding signal 8120 fluorescence intensity (a.u.). Against it:
- CTGAACATGTTGTTCAGTTGGCCTCGTTTTCTCACCTTTGCGGAGTCACCTAGTGCAG — higher, 9320 fluorescence intensity (a.u.)
- GAATTAAGTCTATTTTCGATCCTTGTAGTATTTTTATTGACGGAGTCACCTAGTGCAG — higher, 9450 fluorescence intensity (a.u.)
- CTTGTGTCTCATCTCCGCCGCCCCTCGCCTCCTCGTCCTCCGGAGTCACCTAGTGCAG — higher, 11000 fluorescence intensity (a.u.)
- CTTAGGGTCGGGAAGGGGAGAGGCGGTGGCGGGCGGCTGACGGAGTCACCTAGTGCAG — higher, 13400 fluorescence intensity (a.u.)
- CTGTTTGACCACAGCAAAGGACCGTGATCCCCATCATCCACGGAGTCACCTAGTGCAG — higher, 10200 fluorescence intensity (a.u.)
- GGTGGCTGGAGATGATAGAGATGGGCACGTTTACTTCCTCCGGAGTCACCTAGTGCAG — higher, 8360 fluorescence intensity (a.u.)
- TTTTACGTCGTCCGATCCGTCCATTGCTCCATTGCTGACGCGGAGTCACCTAGTGCAG — higher, 8170 fluorescence intensity (a.u.)
- GCAAAGCTGTTGCCCGAGCCATGGCCACCCACAAGCTCGACGGAGTCACCTAGTGCAG — lower, 8080 fluorescence intensity (a.u.)
- TCCTGAGATATTAGGGTTTGGGTAATTTGGGTACAGATAGCGGAGTCACCTAGTGCAG — higher, 9070 fluorescence intensity (a.u.)
- ACCGCCGGCGCCGGCTCCTCCACCCCGTCGCCCGGTTCGACGGAGTCACCTAGTGCAG — higher, 8270 fluorescence intensity (a.u.)
- AATCTCTTCTTGATTACTCCCTCCGTTTTCTAAATATTTACGGAGTCACCTAGTGCAG — higher, 9000 fluorescence intensity (a.u.)
- GGAATGTAGTCTACTCATATGCTTTCTGTGGTGCATTCTACGGAGTCACCTAGTGCAG — higher, 9090 fluorescence intensity (a.u.)
- GCATGATCTGTGATGCATCTTTTGTTCCAAATTGTAGACTCGGAGTCACCTAGTGCAG — higher, 9280 fluorescence intensity (a.u.)
- GCAACGTGACTCCACACTCTTTTGTTCGTTACCCATTCCACGGAGTCACCTAGTGCAG — higher, 15900 fluorescence intensity (a.u.)
- CATCGTTAGTACAGCAATCTTTCAGGTGAGTTTTTTTTTCCGGAGTCACCTAGTGCAG — higher, 9710 fluorescence intensity (a.u.)
- GTTTACCACGGTGTGCTTTGCTCTCTTGCCTCTCCTGTCTCGGAGTCACCTAGTGCAG — higher, 9160 fluorescence intensity (a.u.)
- TGCTTACATCATTCTGCGTTTATGGGTTCTCACTTTAGCTCGGAGTCACCTAGTGCAG — higher, 9870 fluorescence intensity (a.u.)
- CTTCTTCGCCGTCTCCGATCTGGAACTTCACCGCCGCCGCCGGAGTCACCTAGTGCAG — higher, 10100 fluorescence intensity (a.u.)
- AATGCTCGAAACAGGTTCCTACCTACTACTTTTGTTTCAGCGGAGTCACCTAGTGCAG — lower, 8020 fluorescence intensity (a.u.)
- TCTTCCATCTCCTAATCTTCCCCTAACAAGTCCTAGCTAACGGAGTCACCTAGTGCAG — higher, 8410 fluorescence intensity (a.u.)
- TCATCTTCCCACTTATGTTTATATTATATTTATTAATCATCGGAGTCACCTAGTGCAG — higher, 8400 fluorescence intensity (a.u.)
- GGTGGGTGGTGTCCGGGGTGGCGTTCTGGTGGACGGCGTTCGGAGTCACCTAGTGCAG — higher, 14200 fluorescence intensity (a.u.)
